Some results were stated once for a whole list of compounds, not compound by compound. For at least one compound, name, drawing or mass did not settle the structure.
Test system: VIM-producing Klebsiella clinical isolates
Assay: Broth microdilution MIC of meropenem with MBL inhibitor
Format: cell-based
Settings: MBL inhibitor fixed at 32 μg/ml

SMILES	Effect on MIC of Meropenem toward VIM-producing Klebsiella clinical isolates
O=[N+]([O-])c1ccc(CSCCn2c(-c3ccccc3)n[nH]c2=S)cc1 [Compound 74, 4-[2-(4-Nitrobenzylsulfanyl)ethyl]-3-phenyl-4,5-dihydro-1H-1,2,4-triazole-5-thione]	significantly decreased
Cn1cccc1-c1n[nH]c(=S)n1CCSCc1ccccc1 [Compound 64, 4-[2-(Benzylthio)ethyl]-5-(1-methyl-1H-pyrrol-2-yl)-2,4-dihydro-1,2,4-triazole-3-thione]	significantly decreased
O=C(O)CCSCCn1c(-c2ccccc2)n[nH]c1=S [Compound 66, [2-(3-Phenyl-5-thioxo-1,4-dihydro-1,2,4-triazol-4-yl)ethylthio]propionic acid]	significantly decreased
Fc1ccccc1CSCCn1c(-c2ccccc2)n[nH]c1=S [Compound 71, 4-[2-(2-Fluorobenzylsulfanyl)ethyl]-3-phenyl-4,5-dihydro-1H-1,2,4-triazole-5-thione]	significantly decreased
O=C(O)c1ccccc1CCn1c(-c2cccc(OCCN3CCOCC3)c2)n[nH]c1=S [Compound 62, o-(2-{3-[m-(2-Morpholinoethoxy)phenyl]-5-thioxo-1,4-dihydro-1,2,4-triazol-4-yl}ethyl)benzoic acid]	significantly decreased
S=c1[nH]nc(-c2ccccc2)n1CCSc1ccccc1 [Compound 70, 5-Phenyl-4-[2-(phenylthio)ethyl]-2,4-dihydro-1,2,4-triazole-3-thione]	significantly decreased
O=C(O)C(CCCn1c(-c2ccccc2)n[nH]c1=S)N(Cc1c[nH]cn1)Cc1c[nH]cn1 (centres unmarked) [Compound 69, 2-[Bis(1H-imidazol-5-ylmethyl)amino]-5-(3-phenyl-5-sulfanylidene-4,5-dihydro-1H-1,2,4-triazol-4-yl)pentanoic acid]	significantly decreased
O=C(O)C(CSCCn1c(-c2cccc(-c3ccccc3)c2)n[nH]c1=S)c1ccccc1 (centres unmarked) [Compound 81, 3-{2-[3-(3-Biphenylyl)-5-thioxo-1,4-dihydro-1,2,4-triazol-4-yl]ethylthio}-hydratropic acid]	significantly decreased
Oc1ccc(CCn2c(-c3cccc(-c4ccccc4)c3)n[nH]c2=S)c(O)c1 [Compound 42, 5-(3-Biphenyl)-4-[2-(2,4-dihydroxyphenyl)ethyl]-1,2,4-triazole-3-thione]	significantly decreased
Cc1ccccc1-c1n[nH]c(=S)n1CCSCc1ccccc1 [Compound 80, 4-[2-(Benzylthio)ethyl]-5-(o-tolyl)-2,4-dihydro-1,2,4-triazole-3-thione]	significantly decreased
O=C(O)C(CSCCn1c(-c2ccccc2)n[nH]c1=S)c1ccccc1 (centres unmarked) [Compound 78, 2-Phenyl-3-[2-(3-phenyl-5-thioxo-1,4-dihydro-1,2,4-triazol-4-yl)ethylthio]-propionic acid]	significantly decreased
S=c1[nH]nc(-c2ccccc2)n1CCSCc1ccccc1 [Compound 33, 4-[2-(benzylsulfanyl)ethyl]-3-phenyl-4,5-dihydro-1H-1,2,4-triazole-5-thione]	significantly decreased
O=C(O)c1ccccc1CCn1c(-c2cccc(-c3ccccc3)c2)n[nH]c1=S [Compound 39, 5-(3-Biphenyl)-4-[2-(2-carboxyphenyl)ethyl]-1,2,4-triazole-3-thione]	significantly decreased
Fc1ccc(CSCCn2c(-c3ccccc3)n[nH]c2=S)cc1 [Compound 72, 4-[2-(4-Fluorobenzylsulfanyl)ethyl]-3-phenyl-4,5-dihydro-1H-1,2,4-triazole-5-thione]	significantly decreased
S=c1[nH]nc(-c2ccccc2)n1CCSCCc1ccccc1 [Compound 77, 4-[2-(2-Phenylethylsulfanyl)ethyl]-3-phenyl-4,5-dihydro-1H-1,2,4-triazole-5-thione]	significantly decreased
CN1CCN(CCOc2cccc(-c3n[nH]c(=S)n3CCc3ccccc3C(=O)O)c2)CC1 [Compound 63, o-[2-(3-{m-[2-(4-Methyl-1-piperazinyl)ethoxy]phenyl}-5-thioxo-1,4-dihydro-1,2,4-triazol-4-yl)ethyl]benzoic acid]	significantly decreased
O=[N+]([O-])c1ccccc1CSCCn1c(-c2ccccc2)n[nH]c1=S [Compound 75, 4-[2-(2-Nitrobenzylsulfanyl)ethyl]-3-phenyl-4,5-dihydro-1H-1,2,4-triazole-5-thione]	significantly decreased
Fc1ccc(CSCCn2c(-c3ccccc3)n[nH]c2=S)c(F)c1 [Compound 73, 4-[2-(2,4-Difluorobenzylsulfanyl)ethyl]-3-phenyl-4,5-dihydro-1H-1,2,4-triazole-5-thione]	significantly decreased
O=C1OC(Cn2c(-c3ccccc3)n[nH]c2=S)c2ccccc21 (centres unmarked) [Compound 37, 5-Phenyl-4-[(3-phthalideyl)methyl]-2,4-dihydro-1,2,4-triazole-3-thione]	significantly decreased
O=[N+]([O-])c1ccc(O)c(CSCCn2c(-c3ccccc3)n[nH]c2=S)c1 [Compound 76, 4-[2-(2-Hydroxy-5-Nitrobenzylsulfanyl)ethyl]-3-phenyl-4,5-dihydro-1H-1,2,4-triazole-5-thione]	significantly decreased

From patent US20220000841A1, “INHIBITORS OF METALLO-BETA-LACTAMASES” (CENTRE NATIONAL DE LA RECHERCHE SCIENTIFIQUE, priority 2018, published 2022)
